Data taken from article PMC10897203.
These are yes or no findings as the source states them, for the method shown. For some of these results: Binding seen in cells or lysates may run through a third protein. Some results given as binding are weak or reduced against the parent protein; the word gives no strength. For some of these results: Sequences can lack the tags named with a protein.

Sequences of proteins named here, by UniProt entry; tags and fusion partners are left off.
UniProt P61765: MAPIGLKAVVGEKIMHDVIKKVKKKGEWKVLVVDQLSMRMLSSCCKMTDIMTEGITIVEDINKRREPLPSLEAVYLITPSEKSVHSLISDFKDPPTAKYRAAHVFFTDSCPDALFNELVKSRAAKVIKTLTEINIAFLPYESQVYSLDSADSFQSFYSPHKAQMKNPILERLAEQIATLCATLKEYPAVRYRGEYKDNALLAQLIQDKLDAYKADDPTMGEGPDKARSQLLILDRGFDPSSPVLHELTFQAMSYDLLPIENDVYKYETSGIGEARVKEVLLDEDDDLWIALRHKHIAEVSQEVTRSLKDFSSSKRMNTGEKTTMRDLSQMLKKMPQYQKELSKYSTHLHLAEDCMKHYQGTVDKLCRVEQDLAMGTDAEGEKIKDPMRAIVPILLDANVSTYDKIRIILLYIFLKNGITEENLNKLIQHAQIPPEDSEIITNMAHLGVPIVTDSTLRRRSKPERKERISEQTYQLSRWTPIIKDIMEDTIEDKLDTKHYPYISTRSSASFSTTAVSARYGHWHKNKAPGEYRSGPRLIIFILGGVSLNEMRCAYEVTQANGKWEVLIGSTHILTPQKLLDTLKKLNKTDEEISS

Experiments:
[1] = molecular target: GFP-tagged STXBP1^WT (ALPHAScreen) (UniProt P61765); experiment: AlphaScreen or HTRF; protein pair co-expressed in Leishmania tarentolae extract (one with C-terminal GFP, the other with C-terminal Cherry-cMyc), diluted in 25 mM HEPES, 50 mM NaCl; biotin-coupled GFP-nanotrap on streptavidin donor beads, anti-cMyc acceptor beads; room temperature
[2] = molecular target: STXBP1-emGFP (pCMV-STXBP1-emGFP) (UniProt P61765); experiment: co-IP; GFP-trap (anti-GFP magnetic beads, 1 h at 4 °C) on lysates of transfected PC12 or STXBP1/2 DKO PC12 cells, non-stimulated or stimulated (high K+ in the text, 2 mM BaCl2 in legend and methods); western blot

| binding [1] | binding [2] | Binder |
| --- | --- | --- |
| binds |  | myc-tagged DDHD2 (ALPHAScreen) (enzyme, UniProt O94830 1-711) MSSVQSQQEQLSQSDPSPSPNSCSSFELIDMDAGSLYEPVSPHWFYCKIIDSKETWIPFNSEDSQQLEEAYSSGKGCNGRVVPTDGGRYDVHLGERMRYAVYWDELASEVRRCTWFYKGDKDNKYVPYSESFSQVLEETYMLAVTLDEWKKKLESPNREIIILHNPKLMVHYQPVAGSDDWGSTPTEQGRPRTVKRGVENISVDIHCGEPLQIDHLVFVVHGIGPACDLRFRSIVQCVNDFRSVSLNLLQTHFKKAQENQQIGRVEFLPVNWHSPLHSTGVDVDLQRITLPSINRLRHFTNDTILDVFFYNSPTYCQTIVDTVASEMNRIYTLFLQRNPDFKGGVSIAGHSLGSLILFDILTNQKDSLGDIDSEKDSLNIVMDQGDTPTLEEDLKKLQLSEFFDIFEKEKVDKEALALCTDRDLQEIGIPLGPRKKILNYFSTRKNSMGIKRPAPQPASGANIPKESEFCSSSNTRNGDYLDVGIGQVSVKYPRLIYKPEIFFAFGSPIGMFLTVRGLKRIDPNYRFPTCKGFFNIYHPFDPVAYRIEPMVVPGVEFEPMLIPHHKGRKRMHLELREGLTRMSMDLKNNLLGSLRMAWKSFTRAPYPALQASETPEETEAEPESTSEKPSDVNTEETSVAVKEEVLPINVGMLNGGQRIDYVLQEKPIESFNEYLFALQSHLCYWESEDTVLLVLKEIYQTQGIFLDQPLQ |
|  | binds | DDHD2, endogenous in PC12 cells (enzyme, UniProt D3ZJ91 1-699) MSSGESYQEQLSQSDPSPSPNSSSSFELLDMDVGSSYEPVSPHWFYCKVIDSKELWIPFNSEDSQQLEEAHGSGKDCNERVVPTDGGRYDVHLGERMRYAVYWDELPSEVRRCTWFYKGDKDNKYVPYSESFSQVLEDTYMLAVTLDEWKKKLESPNREIIVLHNPKLMVHYQPITGSDEWGSTSTEQGRPRSVKRGVESIPVDIHCGEPLQIDHLVFVVHGIGPACDLRFRSIVQCVNDFRSVSLNLLQTHFKKAQENQQIGRVEFLPVNWHSPLHSTGVDIDLQRITLPSINRLRHFTNDTILDVFFYNSPTYCQTIVDTVASEMNRIYTLFLQRNPDFKGGVSIAGHSLGSLILFDILTNQKDSIGDIDSEKGSLSTAEDLGDVSTLEEELKKLQLSEFVTVFEKEKVDREALALCTDRDLQEMGIPLGPRKKILNHFSATKSSVGINRPTMSASEVNIPKEKGDYLDVGIGQVSVKYPRLNYKPEIFFAFGSPIGMFLTVRGLRRIDPNYKFPTCKGFFNIYHPFDPVAYRIEPMVVPGVEFEPMLIPHHKGRKRMHLELREGLTRMSMDLKNNLLGSLRMAWKSFTRAPYPALQASEMAEDTEAESEPSSEKPSDANTEEPPVEVKEEAPINVGMLNGGQRIDYVLQEKPIESFNEYLFALQSHLCYWESEDTVLLVLKEIYQTQGIFLDQPLQ |
| binds |  | myc-tagged PAPLA1 (ALPHAScreen) (enzyme, UniProt Q8NEL9 1-900) MNYPGRGSPRSPEHNGRGGGGGAWELGSDARPAFGGGVCCFEHLPGGDPDDGDVPLALLRGEPGLHLAPGTDDHNHHLALDPCLSDENYDFSSAESGSSLRYYSEGESGGGGSSLSLHPPQQPPLVPTNSGGGGATGGSPGERKRTRLGGPAARHRYEVVTELGPEEVRWFYKEDKKTWKPFIGYDSLRIELAFRTLLQTTGARPQGGDRDGDHVCSPTGPASSSGEDDDEDRACGFCQSTTGHEPEMVELVNIEPVCVRGGLYEVDVTQGECYPVYWNQADKIPVMRGQWFIDGTWQPLEEEESNLIEQEHLNCFRGQQMQENFDIEVSKSIDGKDAVHSFKLSRNHVDWHSVDEVYLYSDATTSKIARTVTQKLGFSKASSSGTRLHRGYVEEATLEDKPSQTTHIVFVVHGIGQKMDQGRIIKNTAMMREAARKIEERHFSNHATHVEFLPVEWRSKLTLDGDTVDSITPDKVRGLRDMLNSSAMDIMYYTSPLYRDELVKGLQQELNRLYSLFCSRNPDFEEKGGKVSIVSHSLGCVITYDIMTGWNPVRLYEQLLQKEEELPDERWMSYEERHLLDELYITKRRLKEIEERLHGLKASSMTQTPALKFKVENFFCMGSPLAVFLALRGIRPGNTGSQDHILPREICNRLLNIFHPTDPVAYRLEPLILKHYSNISPVQIHWYNTSNPLPYEHMKPSFLNPAKEPTSVSENEGISTIPSPVTSPVLSRRHYGESITNIGKASILGAASIGKGLGGMLFSRFGRSSTTQSSETSKDSMEDEKKPVASPSATTVGTQTLPHSSSGFLDSAYFRLQESFFNLPQLLFPENVMQNKDNALVELDHRIDFELREGLVESRYWSAVTSHTAYWSSLDVALFLLTFMYKHEHDDDAKPNLDPI |
| binds |  | myc-tagged PNPLA1 (ALPHAScreen) (enzyme, UniProt Q8N8W4 1-532) MEEQVFKGDPDTPHSISFSGSGFLSFYQAGAVDALRDLAPRMLETAHRFAGTSAGAVIAALAICGIEMDEYLRVLNVGVAEVKKSFLGPLSPSCKMVQMMRQFLYRVLPEDSYKVTTGKLHVSLTRLTDGENVVVSEFTSKEELIEALYCSCFVPVYCGLIPPTYRGVRYIDGGFTGMQPCAFWTDAITISTFSGQQDICPRDCPAIFHDFRMFNCSFQFSLENIARMTHALFPPDLVILHDYYYRGYEDAVLYLRRLNAVYLNSSSKRVIFPRVEVYCQIELALGNECPERSQPSLRARQASLEGATQPHKEWVPKGDGRGSHGPPVSQPVQTLEFTCESPVSAPVSPLEQPPAQPLASSTPLSLSGMPPVSFPAVHKPPSSTPGSSLPTPPPGLSPLSPQQQVQPSGSPARSLHSQAPTSPRPSLGPSTVGAPQTLPRSSLSAFPAQPPVEELGQEQPQAVALLVSSKPKSAVPLVHVKETVSKPYVTESPAEDSNWVNKVFKKNKQKTSGTRKGFPRHSGSKKPSSKVQ |
